The values that follow come from PMC5351981.

By UniProt entry, the sequences of proteins in these tests, tags left out. Where a name states a change or a piece, a line headed by the entry shows the natural chain unless it says otherwise.
UniProt Q9VAJ1: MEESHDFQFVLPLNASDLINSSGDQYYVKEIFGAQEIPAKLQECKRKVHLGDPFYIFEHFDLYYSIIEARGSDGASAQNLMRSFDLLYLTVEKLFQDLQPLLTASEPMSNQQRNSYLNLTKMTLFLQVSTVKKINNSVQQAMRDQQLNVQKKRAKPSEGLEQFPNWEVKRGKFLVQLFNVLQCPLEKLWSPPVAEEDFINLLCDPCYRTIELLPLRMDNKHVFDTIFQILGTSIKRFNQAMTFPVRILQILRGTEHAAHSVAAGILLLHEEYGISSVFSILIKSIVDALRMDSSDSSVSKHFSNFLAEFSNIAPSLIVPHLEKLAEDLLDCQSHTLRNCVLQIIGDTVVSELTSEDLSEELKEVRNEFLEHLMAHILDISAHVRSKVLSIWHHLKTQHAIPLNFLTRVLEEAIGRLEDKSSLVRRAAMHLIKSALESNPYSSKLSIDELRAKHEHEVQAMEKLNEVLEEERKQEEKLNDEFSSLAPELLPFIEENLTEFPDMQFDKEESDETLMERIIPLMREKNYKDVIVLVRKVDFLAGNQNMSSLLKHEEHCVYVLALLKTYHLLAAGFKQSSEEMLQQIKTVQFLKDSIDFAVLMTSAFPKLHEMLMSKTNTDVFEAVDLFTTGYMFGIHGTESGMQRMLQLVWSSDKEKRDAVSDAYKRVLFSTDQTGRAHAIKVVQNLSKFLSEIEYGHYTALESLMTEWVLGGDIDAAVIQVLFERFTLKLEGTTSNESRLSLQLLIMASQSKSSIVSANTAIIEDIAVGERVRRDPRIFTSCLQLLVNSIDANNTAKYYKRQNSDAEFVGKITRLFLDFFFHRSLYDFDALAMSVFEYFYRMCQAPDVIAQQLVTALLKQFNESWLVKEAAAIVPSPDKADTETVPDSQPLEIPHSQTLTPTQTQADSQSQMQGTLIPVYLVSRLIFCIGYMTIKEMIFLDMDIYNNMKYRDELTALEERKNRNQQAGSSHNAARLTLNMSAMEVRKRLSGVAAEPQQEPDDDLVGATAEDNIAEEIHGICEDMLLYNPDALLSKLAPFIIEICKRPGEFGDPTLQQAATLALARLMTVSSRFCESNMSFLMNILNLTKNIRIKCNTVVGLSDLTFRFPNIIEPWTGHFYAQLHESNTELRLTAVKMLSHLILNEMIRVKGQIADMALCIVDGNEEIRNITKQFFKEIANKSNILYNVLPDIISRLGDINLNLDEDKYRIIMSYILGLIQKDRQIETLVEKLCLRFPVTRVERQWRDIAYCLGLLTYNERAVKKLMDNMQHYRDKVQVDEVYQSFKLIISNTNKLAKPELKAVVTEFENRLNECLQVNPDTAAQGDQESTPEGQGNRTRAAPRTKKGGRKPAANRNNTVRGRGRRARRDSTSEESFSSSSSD
UniProt A1Z8S6: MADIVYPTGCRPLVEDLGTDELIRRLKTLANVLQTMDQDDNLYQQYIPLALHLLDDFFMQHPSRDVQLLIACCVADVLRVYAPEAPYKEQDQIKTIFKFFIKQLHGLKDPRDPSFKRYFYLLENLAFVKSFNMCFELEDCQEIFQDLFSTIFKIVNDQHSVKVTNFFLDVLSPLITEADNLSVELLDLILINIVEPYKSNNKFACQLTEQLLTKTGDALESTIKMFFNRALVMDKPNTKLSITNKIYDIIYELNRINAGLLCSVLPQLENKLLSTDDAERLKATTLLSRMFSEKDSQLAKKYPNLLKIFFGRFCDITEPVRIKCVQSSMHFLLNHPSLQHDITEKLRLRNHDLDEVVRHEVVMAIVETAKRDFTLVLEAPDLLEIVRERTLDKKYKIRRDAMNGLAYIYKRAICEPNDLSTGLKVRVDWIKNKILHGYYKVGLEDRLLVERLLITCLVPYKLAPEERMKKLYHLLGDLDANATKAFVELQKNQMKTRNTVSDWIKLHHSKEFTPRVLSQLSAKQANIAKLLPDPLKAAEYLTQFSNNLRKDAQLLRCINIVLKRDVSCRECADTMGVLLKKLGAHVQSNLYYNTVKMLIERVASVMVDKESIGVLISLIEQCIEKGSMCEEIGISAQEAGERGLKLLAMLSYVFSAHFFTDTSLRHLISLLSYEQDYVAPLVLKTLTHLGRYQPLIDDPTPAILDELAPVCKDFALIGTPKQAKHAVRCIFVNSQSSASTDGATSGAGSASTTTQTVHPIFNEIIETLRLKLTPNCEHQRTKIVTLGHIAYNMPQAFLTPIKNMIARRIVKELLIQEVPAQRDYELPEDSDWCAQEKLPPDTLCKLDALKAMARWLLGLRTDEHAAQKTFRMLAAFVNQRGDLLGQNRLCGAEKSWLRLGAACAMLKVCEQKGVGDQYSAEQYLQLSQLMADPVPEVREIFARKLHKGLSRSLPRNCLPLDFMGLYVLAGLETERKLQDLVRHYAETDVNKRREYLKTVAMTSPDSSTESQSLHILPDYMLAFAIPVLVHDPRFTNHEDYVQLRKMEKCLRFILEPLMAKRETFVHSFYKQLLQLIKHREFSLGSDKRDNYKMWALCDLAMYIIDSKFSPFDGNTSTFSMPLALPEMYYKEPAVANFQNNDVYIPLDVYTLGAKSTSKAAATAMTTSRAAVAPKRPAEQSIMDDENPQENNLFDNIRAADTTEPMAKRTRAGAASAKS
UniProt Q9VC36: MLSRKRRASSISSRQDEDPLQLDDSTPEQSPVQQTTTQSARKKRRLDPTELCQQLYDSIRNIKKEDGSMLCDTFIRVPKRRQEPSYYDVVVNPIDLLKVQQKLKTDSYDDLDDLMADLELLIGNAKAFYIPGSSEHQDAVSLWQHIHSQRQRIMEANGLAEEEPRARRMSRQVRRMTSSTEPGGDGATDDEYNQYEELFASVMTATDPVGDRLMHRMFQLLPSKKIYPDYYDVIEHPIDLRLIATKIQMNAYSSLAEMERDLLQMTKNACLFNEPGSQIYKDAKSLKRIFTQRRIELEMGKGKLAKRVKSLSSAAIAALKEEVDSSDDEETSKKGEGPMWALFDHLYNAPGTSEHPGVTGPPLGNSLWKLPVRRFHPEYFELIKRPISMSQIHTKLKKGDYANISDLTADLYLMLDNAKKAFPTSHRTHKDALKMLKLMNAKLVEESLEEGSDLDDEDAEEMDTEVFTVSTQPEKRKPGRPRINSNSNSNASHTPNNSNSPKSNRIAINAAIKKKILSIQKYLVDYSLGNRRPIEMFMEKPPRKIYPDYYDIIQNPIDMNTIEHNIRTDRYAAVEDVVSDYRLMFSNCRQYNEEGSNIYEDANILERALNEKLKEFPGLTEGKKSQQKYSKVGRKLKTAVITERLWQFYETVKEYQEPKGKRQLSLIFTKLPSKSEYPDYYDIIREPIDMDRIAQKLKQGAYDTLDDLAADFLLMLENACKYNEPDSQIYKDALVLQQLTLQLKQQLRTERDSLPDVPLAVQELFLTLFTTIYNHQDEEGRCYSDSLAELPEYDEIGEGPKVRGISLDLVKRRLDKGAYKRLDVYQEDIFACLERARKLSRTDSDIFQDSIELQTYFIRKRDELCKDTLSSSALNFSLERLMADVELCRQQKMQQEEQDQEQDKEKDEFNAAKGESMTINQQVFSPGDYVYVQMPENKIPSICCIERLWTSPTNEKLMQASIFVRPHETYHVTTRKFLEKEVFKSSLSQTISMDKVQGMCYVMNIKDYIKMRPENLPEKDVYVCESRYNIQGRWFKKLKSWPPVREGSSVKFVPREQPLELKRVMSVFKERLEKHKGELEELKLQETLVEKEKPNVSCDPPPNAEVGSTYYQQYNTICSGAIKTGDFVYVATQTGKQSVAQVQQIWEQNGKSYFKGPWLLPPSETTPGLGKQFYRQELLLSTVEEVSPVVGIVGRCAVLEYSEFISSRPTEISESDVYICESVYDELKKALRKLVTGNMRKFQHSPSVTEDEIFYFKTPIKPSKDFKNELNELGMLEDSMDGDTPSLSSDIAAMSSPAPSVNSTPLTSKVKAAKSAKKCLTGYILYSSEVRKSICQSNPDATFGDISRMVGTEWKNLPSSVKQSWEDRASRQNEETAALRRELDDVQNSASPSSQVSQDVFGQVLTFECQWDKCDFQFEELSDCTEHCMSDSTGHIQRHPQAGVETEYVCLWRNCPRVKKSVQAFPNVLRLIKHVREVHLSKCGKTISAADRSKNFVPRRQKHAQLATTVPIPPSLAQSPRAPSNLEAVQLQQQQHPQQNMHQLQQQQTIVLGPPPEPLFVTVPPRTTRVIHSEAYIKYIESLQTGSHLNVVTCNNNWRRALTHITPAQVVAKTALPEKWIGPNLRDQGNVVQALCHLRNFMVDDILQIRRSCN
UniProt P12982: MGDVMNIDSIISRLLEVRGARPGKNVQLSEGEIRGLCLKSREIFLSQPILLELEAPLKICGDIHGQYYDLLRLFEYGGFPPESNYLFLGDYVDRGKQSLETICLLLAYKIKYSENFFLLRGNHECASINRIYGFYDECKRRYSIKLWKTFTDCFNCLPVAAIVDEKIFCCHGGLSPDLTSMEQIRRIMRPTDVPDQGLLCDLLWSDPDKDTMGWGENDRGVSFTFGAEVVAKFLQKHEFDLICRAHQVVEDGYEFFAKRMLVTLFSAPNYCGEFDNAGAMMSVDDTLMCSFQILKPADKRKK
UniProt Q9VWF2: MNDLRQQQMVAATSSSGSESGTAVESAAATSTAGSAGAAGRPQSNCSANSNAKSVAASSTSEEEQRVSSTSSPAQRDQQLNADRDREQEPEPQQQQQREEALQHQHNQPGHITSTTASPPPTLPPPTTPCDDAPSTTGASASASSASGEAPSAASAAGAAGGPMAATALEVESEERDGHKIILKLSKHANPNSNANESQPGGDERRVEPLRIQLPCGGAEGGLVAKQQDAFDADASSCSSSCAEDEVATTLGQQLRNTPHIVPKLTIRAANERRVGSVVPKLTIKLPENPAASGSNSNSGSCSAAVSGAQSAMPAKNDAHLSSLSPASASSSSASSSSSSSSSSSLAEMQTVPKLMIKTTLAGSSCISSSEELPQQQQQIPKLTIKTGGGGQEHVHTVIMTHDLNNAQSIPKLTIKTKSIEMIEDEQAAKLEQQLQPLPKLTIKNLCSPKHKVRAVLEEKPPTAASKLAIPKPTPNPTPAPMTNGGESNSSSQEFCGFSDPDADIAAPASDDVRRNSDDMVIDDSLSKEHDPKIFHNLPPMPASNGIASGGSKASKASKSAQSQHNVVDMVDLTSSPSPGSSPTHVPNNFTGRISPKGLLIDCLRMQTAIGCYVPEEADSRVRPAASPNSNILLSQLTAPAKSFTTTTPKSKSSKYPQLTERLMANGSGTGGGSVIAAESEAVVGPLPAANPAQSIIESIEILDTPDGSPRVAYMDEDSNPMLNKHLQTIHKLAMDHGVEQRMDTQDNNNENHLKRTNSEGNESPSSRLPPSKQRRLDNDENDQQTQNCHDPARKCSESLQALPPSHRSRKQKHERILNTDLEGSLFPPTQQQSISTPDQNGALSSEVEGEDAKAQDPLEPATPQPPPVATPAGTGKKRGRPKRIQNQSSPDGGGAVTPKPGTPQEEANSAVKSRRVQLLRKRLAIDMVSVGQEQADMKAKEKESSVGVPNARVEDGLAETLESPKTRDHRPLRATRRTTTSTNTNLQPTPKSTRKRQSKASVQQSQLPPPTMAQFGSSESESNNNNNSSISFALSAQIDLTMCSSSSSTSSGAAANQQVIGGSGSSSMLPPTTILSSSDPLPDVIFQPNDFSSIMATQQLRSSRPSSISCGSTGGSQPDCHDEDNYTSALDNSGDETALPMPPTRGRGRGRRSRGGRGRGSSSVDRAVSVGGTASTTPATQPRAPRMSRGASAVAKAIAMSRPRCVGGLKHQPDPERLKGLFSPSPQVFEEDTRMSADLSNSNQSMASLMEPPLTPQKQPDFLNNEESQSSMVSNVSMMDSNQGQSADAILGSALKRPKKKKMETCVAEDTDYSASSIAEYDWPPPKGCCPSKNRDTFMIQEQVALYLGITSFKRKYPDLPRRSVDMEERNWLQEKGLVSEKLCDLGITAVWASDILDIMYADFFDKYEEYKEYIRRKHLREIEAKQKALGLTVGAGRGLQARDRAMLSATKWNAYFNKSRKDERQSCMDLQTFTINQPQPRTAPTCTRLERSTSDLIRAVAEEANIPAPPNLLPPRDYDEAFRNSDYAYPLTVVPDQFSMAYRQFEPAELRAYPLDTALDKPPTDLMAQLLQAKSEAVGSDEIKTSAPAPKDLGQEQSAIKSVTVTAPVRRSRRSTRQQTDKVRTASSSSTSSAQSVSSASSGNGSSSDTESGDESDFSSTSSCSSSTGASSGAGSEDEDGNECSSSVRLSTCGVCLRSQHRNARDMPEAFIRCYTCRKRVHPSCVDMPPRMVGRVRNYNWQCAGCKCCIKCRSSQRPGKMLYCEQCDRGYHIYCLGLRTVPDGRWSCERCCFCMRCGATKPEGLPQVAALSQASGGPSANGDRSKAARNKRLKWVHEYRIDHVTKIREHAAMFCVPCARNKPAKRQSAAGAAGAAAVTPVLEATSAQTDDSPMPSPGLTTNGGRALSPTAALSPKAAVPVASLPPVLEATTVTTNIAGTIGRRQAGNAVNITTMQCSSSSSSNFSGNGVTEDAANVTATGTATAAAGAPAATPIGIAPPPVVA

Results are given in words; binding and its absence hold for the method and conditions named. In cells and extracts the contact can be indirect. A yes stands for co-enrichment or nearness to the bait. Other partners may have been found. No binding means not detected with the bait.

This test has as its target GAGA factor (GAF) (Drosophila melanogaster (endogenous in embryos)) (UniProt Q08605). As to the kind of experiment: affinity purification with mass spectrometry; GAF polyclonal antibody coupled to protein A Sepharose; 10 mg nuclear extract of 0-12 h embryos, HEMG-150, 2 h; washed with HEMG-500 plus 0.1% Nonidet P-40; eluted with 0.1 M glycine pH 2.5; triplicate; mock: protein A Sepharose with no antibody.
As to Acf1 (from UniProt Q9V9T4), the binding entry was “binds”.

Regarding Ash2 (from UniProt Q94545 1-556), the binding result was “binds”.

Take Bap55 (from UniProt A1ZAS6): the binding entry is listed as “binds”.

In the case of Bap60 (from UniProt Q9VYG2 1-515), the binding entry is on record as “binds”.

For the substance Bap111 (from UniProt Q9W384), the binding entry was “binds”.

Turning to Bap170 (from UniProt A1Z6M0), the binding entry was “binds”.

Barr (from UniProt Q9VIP9): the binding entry is “binds”.

On to Brm (from UniProt P25439 1-1638), for which the binding entry was “binds”.

For CG8924 (from UniProt E2QD86), the binding result was “binds”.

Turning to Caf1-55/p55 (from UniProt Q24572 1-430), the binding result was “binds”.

For Cap-D2 (from UniProt Q9VAJ1), the binding entry is listed as “binds”.

Consider CtBP (from UniProt O46036 1-476), for which the binding entry was “binds”.

Turning to Dom (from UniProt Q9NDJ2 1-3198), the binding entry is listed as “binds”.

In the case of Dre4 (from UniProt Q8IRG6 1-1083), the binding result is reported as “no binding”.

As for Dref (from UniProt Q94883), the binding result was “binds”.

“E(bx)/NURF301 (from UniProt Q9W0T1 1-2669)”: the binding entry was “binds”.

Fs(1)h (from UniProt P13709 1-2038): the binding entry is reported as “binds”.

Glu (from UniProt Q9V3A7): the binding entry is listed as “binds”.

Consider HDAC1 (from UniProt Q94517 1-521), for which the binding entry was “binds”.

For the substance Hpr1 (from UniProt Q9VNI8), the binding entry was “binds”.

Regarding Iswi (from UniProt Q24368 1-1027), the binding entry is on record as “binds”.

As for Kto (from UniProt Q9VW47 1-2531), the binding result was “binds”.

On to Lid (from UniProt Q9VMJ7 1-1838), for which the binding entry is “binds”.

With MEP-1 (from UniProt Q0E8J0), the binding result is recorded as “binds”.

Map60/CP60 (from UniProt A1Z7W7): the binding result is “binds”.

On to Mi-2 (from UniProt O97159 1-1982), for which the binding result was “binds”.

Regarding Nipped-B (from UniProt Q7PLI2 1-2077), the binding result is on record as “binds”.

Take Osa (from UniProt Q8IN94 1-2716): the binding result is on record as “binds”.

On to Pds5 (from UniProt A1Z8S6), for which the binding result is on record as “binds”.

As for Ph-p (from UniProt P39769 1-1589), the binding result is on record as “binds weakly”.

In the case of Pho (from UniProt Q8ST83 1-520), the binding entry is listed as “binds weakly”.

In the case of Polybromo (from UniProt Q9VC36), the binding entry is recorded as “binds”.

Take Ppl-87B (from UniProt P12982 1-302): the binding result is reported as “binds”.

As for Psc (from UniProt P35820 1-1601), the binding entry is “binds weakly”.

Turning to SA/SCC3 (from UniProt Q9VM62), the binding entry is listed as “binds”.

Consider SAYP (from UniProt Q9VWF2 1-2006), for which the binding entry is given as “binds”.

In the case of SMC1 (from UniProt Q9VCD8), the binding result is on record as “binds”.

Turning to SMC2 (from UniProt A1Z9V8), the binding entry is recorded as “binds”.

As to SMC3 (from UniProt Q9VXE9), the binding entry was “binds”.

As to Snr1 (from UniProt Q24090), the binding result was “binds”.

Take Sxc/Ogt (from UniProt Q0E9P3): the binding entry was “binds”.

With Zeste (from UniProt P09956), the binding result is on record as “binds”.
